PubChem BioAssay AID1159578 | Peter MacCallum Cancer Centre, 2015
Aim: 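siRNA pools altering how lymphatic endothelial cells close a scratch wound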 (primary screen). Cells: human lymphatic endothelial cells. Reagent: siRNA pool against human genes, 40 nM. Duration: 48 h after transfection. Measurement: 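Cells stained with dye and imaged after a scratch; covered wound area and nuclei counted, duplicates averaged, migration set against mock wells and turned into a robust z-score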. Direction: migration robust z-score: higher = faster migration into the scratch; nuclei per well: higher = more cells in the well. Hit rule: 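Pools averaging fewer than 3300 nuclei are never called; remaining pools count as changed when migration robust z lies outside -2 to 2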. Meaning of the calls: active = migration changed; inactive = no migration change, or too few cells.
Here is a random part of about 18,000 deposited reagents. Of all reagents, about 1,030 (5.7%) are marked active. 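Inactive calls also include pools with fewer than 3300 nuclei, whose migration was not assessed.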 The raw values are shown without normalisation. Further read-outs or replicates are left out here.

gene knocked down | migration robust z-score | nuclei per well, duplicate mean | outcome
CDC42 | -2.46 | 5348 | active
SLAIN1 | 0.86 | 6747 | inactive
ZBTB39 | -0.34 | 4225 | inactive
ETV1 | 0.34 | 5840 | inactive
METTL2B | -0.42 | 5628 | inactive
AK7 | 0.8 | 7624 | inactive
VLDLR | -0.5 | 6182 | inactive
PNN | 1.08 | 5102 | inactive
LINC02914 | -1.45 | 5878 | inactive
MRPL47 | 1.15 | 6312 | inactive
EMILIN3 | -0.59 | 3474 | inactive
NIPAL2 | 0.15 | 5004 | inactive
ADRB1 | 0.54 | 6456 | inactive
AIFM1 | -0.52 | 5732 | inactive
OVCA2 | -0.08 | 5545 | inactive
FKBP2 | -0.26 | 6290 | inactive
EML5 | -0.05 | 5966 | inactive
KLHL22 | -0.7 | 5866 | inactive
ECHDC3 | -0.39 | 5116 | inactive
CLCA1 | -0.42 | 5082 | inactive
COPB2 | -2.08 | 4802 | active
USP46 | 1.01 | 5400 | inactive
MOCOS | 0.15 | 7607 | inactive
MNDA | 0.72 | 4736 | inactive
TSPO | -3.68 | 3081 | inactive

Called active (from the list above):
gene knocked down | migration robust z-score | nuclei per well, duplicate mean | outcome
CDC42 | -2.46 | 5348 | active
COPB2 | -2.08 | 4802 | active

Further records follow:
gene knocked down | migration robust z-score | nuclei per well, duplicate mean | outcome
MYL7 | -2.51 | 4146 | active
RPS20 | -1.79 | 3751 | inactive
WASH5P | 0.78 | 7322 | inactive
IFNK | -2.55 | 2967 | inactive
LRFN5 | -0.26 | 6726 | inactive
GLI1 | -2.1 | 5903 | active
SDK1 | 0.92 | 6430 | inactive
FOXD2 | -0.26 | 4420 | inactive
LRRTM2 | 0.71 | 5816 | inactive
BRS3 | -0.1 | 5843 | inactive
CRABP1 | -1.84 | 5090 | inactive
POP7 | -2.29 | 4223 | active
CYP51A1 | -1.12 | 4804 | inactive
TUBB7P | -1.4 | 5414 | inactive
SNHG32 | 1.67 | 5411 | inactive
AASDH | -0.72 | 7505 | inactive
ITGB1 | -1.35 | 5958 | inactive
VIRMA | -1.43 | 6269 | inactive
COL18A1 | -0.53 | 4871 | inactive
LY6K | 0.52 | 6192 | inactive
NT5DC3 | 1.27 | 7474 | inactive
DOC2B | 0.88 | 5730 | inactive
IPO4 | 0.86 | 6358 | inactive
N4BP1 | 0.28 | 5236 | inactive
EIF4G2 | -1.38 | 4731 | inactive
KHNYN | 1.18 | 5842 | inactive
RAB43 | -0.15 | 5684 | inactive
OR52B2 | -0.4 | 5277 | inactive
CDKN1A | -1.38 | 4824 | inactive
RENBP | -0.65 | 6616 | inactive
SNX3 | -1.84 | 5074 | inactive
REEP3 | -1.42 | 4874 | inactive
